Source: the supplement of paper PMC3334620
Over roughly 33,000 sequences, “E-score (-0.5 to 0.5)” has its median near -0.0014; the highest 2% begin near 0.25. The list shows a part of the results.

molecular target: T1, Cad1 (UniProt P24813); experiment: PBM E-score (8-mer binding enrichment) (E-score (-0.5 to 0.5)); higher = stronger / more preferred TF binding; conditions: protein concentration: 100 nM; construct: GST-full length
T1 sequence: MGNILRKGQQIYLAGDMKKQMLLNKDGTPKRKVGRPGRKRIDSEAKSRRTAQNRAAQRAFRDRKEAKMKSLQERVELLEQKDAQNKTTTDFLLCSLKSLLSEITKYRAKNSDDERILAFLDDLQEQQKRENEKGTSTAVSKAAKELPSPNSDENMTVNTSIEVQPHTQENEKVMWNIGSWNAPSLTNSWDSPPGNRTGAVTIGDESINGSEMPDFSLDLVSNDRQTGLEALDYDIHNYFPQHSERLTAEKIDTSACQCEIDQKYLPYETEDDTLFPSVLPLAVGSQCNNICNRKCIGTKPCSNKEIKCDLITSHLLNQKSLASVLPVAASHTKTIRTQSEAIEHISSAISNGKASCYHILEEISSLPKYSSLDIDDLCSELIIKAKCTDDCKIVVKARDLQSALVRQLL
Method in brief: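 Using PURExpress in vitro transcription/translation, GST-tagged yeast transcription factors were made in full-length or DNA-binding-domain form. These were applied at about 100-200 nM to double-stranded universal all-10-mer Agilent arrays, and bound protein was detected with fluorescent anti-GST. Scans were normalised with masliner before the Universal PBM Analysis Suite assigned E-scores to ungapped eight-base words pooled with their reverse complements.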

Sequence | PBM E-score
AAACACGT | -0.0203
CCTATAAG | -0.199
AGGTGGAA | 0.0944
ACAAGTCG | -0.186
ACAGATCC | 0.137
AGTTTAGA | -0.0131
GACGGGAA | 0.0631
GAAGTCCC | -0.295
TGTACCAA | -0.0377
ACCGGCCG | -0.0241
GAACCCAC | 0.116
CATTTCTA | 0.136
AGAGTTGA | -0.0575
AGATTTCG | 0.0453
ATGATACG | 0.125
CTCTGGCC | -0.122
GTGACCAA | 0.0231
CGACATTC | 0.00278
AGAGTACT | -0.077
AGGGTGAG | -0.167
CAACTTGG | 0.111
AGGGTGAC | 0.103
GACCTTAA | -0.0418
CTATATCC | -0.0465
ATATCCTC | -0.0127

Sequence | PBM E-score
CCCTGGCG | -0.0134
CTCGTGCC | -0.129
AGGCAATG | -0.0344
ATTCATAA | 0.111
CCGCACAG | 0.00344
CGGCAAGC | -0.123
ATAAACTC | 0.16
ACCTATTA | 0.0336
ACAAGCCA | -0.115
CAGTATCG | 0.0176
CCATGACA | 0.126
CTGCTGGA | -0.0574
CTGAGCAC | 0.0489
AGTCCTGC | 0.00453
CCCCCTGC | -0.378
AACTATCT | 0.0668
GTAATCAA | 0.253
CTATTCGC | 0.157
GAGGTACA | -0.18
GCAGACGC | 0.072
AAGGGGTC | -0.223
GCCTCCCC | -0.147
CTCGTCGA | 0.123
AACTGAAT | -0.199
CGCAATGA | -0.00237

Sequence | PBM E-score
ATCAGTAA | 0.126
GGTCGACC | 0.263
CTTCTTCA | -0.199
GCAATAGC | 0.0208
GCAAAATA | 0.128
CATGCCCG | 0.0393
ATGCGTCG | 0.0515
TAAGAATA | -0.0959
AATGATAT | 0.222
GTGCCTAA | 0.00582
GACGGCTA | -0.0222
AGGGACAT | -0.0015
AGAATAAA | 0.218
ACAGAGTG | -0.0197
CCTTTAGA | -0.168
CAACAACG | 0.211
CCGATAGA | -0.0969
ATCGTGAA | 0.0648
ACGGTATC | 0.17
CAGTAAAA | 0.184
AACGGCCC | -0.206
CTAATGAC | -0.151
CCAGAAAA | -0.0283
CCGTGGTA | -0.132
CATCATAA | 0.115

Sequence | PBM E-score
TGCCAGCA | 0.0667
GTCGTGAA | -0.102
GCGGTACC | 0.103
GAGATCAC | -0.0158
AGAAGTAC | -0.0894
AAAGTAAT | 0.173
AACACACA | 0.0441
TGCGCAAA | 0.157
GAATTAGC | 0.134
TCACAGCA | 0.00981
AGCGACCG | 0.0505
CAACAGGG | -0.0494
AACGGCGG | -0.0136
ATAACGAA | 0.258
CCGTACGG | -0.103
AAAGTATA | 0.0724
ACAGTGGG | -0.157
CTTGTTCA | 0.0427
AATAATTG | 0.0365
CAAGCACA | -0.0831
ACCTCCGC | -0.116
CAGACCAA | 0.172
CAAGGTTA | -0.133
ACGGGTTC | -0.0875
ACCCTAAT | -0.0808

Fetched one by one from above, three records:
Sequence | PBM E-score
ACGGGTTC | -0.0875
AACGGCGG | -0.0136
GCGGTACC | 0.103

As a short view, some entries already given.
Sequence | PBM E-score
CAAGGTTA | -0.133
ACGGGTTC | -0.0875

Following part.

Sequence | PBM E-score
CATAATTA | 0.279
CTCCGAGC | 0.139
AAGATGTA | -0.00668
TAAGACAA | 0.0779
GGCTCTAC | -0.14
GGAACACC | 0.0385
AGAACTAA | 0.173
ATCGACGG | 0.0606
GACCCTCC | -0.147
TCAACGCA | 0.134
GCAACCAA | 0.0377
CTTCCCAC | -0.058
CGTAGAGC | 0.028
CCATTCGA | -0.116
GACGGTGA | 0.0758
AGCGGAGC | -0.109
GGGCGTTA | 0.0777
GTCCGACA | 0.109
TAGTCTGA | 0.0529
CGGACACC | -0.0722
CAGGAGGG | -0.349
GTCCCATA | -0.183
ATGATTTA | 0.178
ACACCGAC | -0.146
GGCAAATA | 0.198

Sequence | PBM E-score
CATCGGGA | 0.0722
CTCTCATC | -0.109
CCCGGATA | 0.0426
CGTCCACA | 0.0862
CCGCCGCA | -0.0248
CGGATCAA | 0.175
ACGTCGCA | 0.00852
ACTGGGCA | -0.283
CGGGCACG | -0.0374
AACCTTCT | -0.228
GTAATATA | 0.327
CCGCTAGG | -0.161
CACCACAA | 0.0849
GTATGCTA | -0.0728
CTCGTAAC | 0.112
GTAAGAAC | 0.166
AATTTCAA | 0.169
ACAAACCT | 0.13
CCATCAGG | -0.161
ATATAAGG | 0.188
TATCACGA | -0.0139
CGTTGCCA | 0.1
GGGCTGAA | 0.0352
ATCGATTC | 0.0832
ATCGGCTG | 0.048

Sequence | PBM E-score
CGTGGACC | -0.187
AGTTTTTC | 0.0832
AACGCAGA | 0.075
AGAGATAA | 0.064
CACACACG | -0.0832
CAGCGAAC | 0.102
GGAGGCAA | -0.162
AGGTCGAG | -0.0283
GTGTCCCA | -0.0626
ATCAGGGG | -0.231
AGAAGGGC | -0.137
GGCACATA | 0.132
GCGCAATA | 0.121
ACTGATCT | 0.0639
ACCTCCAC | -0.0904
GAGGACAC | 0.0722
CGTTAGAG | -0.0495
ATGTGGTA | 0.0831
GCGAGAGA | -0.0838
GCTATCCA | -0.144
ACATGCGA | -0.189
GCGGCAAC | 0.13
AGGATAGG | -0.127
GAGTTATA | 0.0281
GGCGAGGA | -0.0516

Sequence | PBM E-score
TCGTCAGA | -0.0952
GCCATACC | -0.0901
CGGACTAG | -0.205
CCCTTTTA | -0.221
CGTCTTTA | 0.163
GATTTTGC | -0.15
GCGACACC | 0.0132
ACCCCTTC | -0.268
CATCGCCG | -0.0925
CCACCGGC | -0.264
CCCTTGCC | -0.0937
CCGGGAAC | -0.164
ATTCTTAA | 0.00046
ATCGGGTC | 0.0992
CAGCACTC | 0.0324
GGACTGCC | -0.0722
ATTAGCAC | 0.0946
CTACCCCC | -0.444
GAGCCGCA | 0.00295
CCGACCGA | -0.179
TCGCGGAA | -0.0387
GAATCTGC | 0.014
GGACTATA | 0.0747
AGGTACCG | 0.0602
CGAATTGC | 0.0993

Sequence | PBM E-score
GAGCTTGC | -0.048
ACAATTGG | -0.0197
AACATTTC | 0.101
AAGTAGCC | -0.208
GACGTGGA | 0.0437
AGAGAGAC | -0.258
GCGAATTA | 0.176
CTTGCGTC | -0.00633
TAAAAGGA | -0.0572
GGTAATCA | 0.203
CCGACTCC | -0.0257
AAAGAAGC | 0.0936
CCTCCTTC | -0.165
CCAAGCGC | 0.166
AAATCCAT | 0.234
AGCTACAG | -0.286
ATGTGAAT | 0.133
AGTTTACA | 0.0849
ACAGCGCA | 0.0437

Part of the list above, with tabs:
Sequence	PBM E-score
TAAAAGGA	-0.0572
GGTAATCA	0.203
CCGACTCC	-0.0257
AAAGAAGC	0.0936
CCTCCTTC	-0.165
